Measurements taken from PMC5844868, “Increased intracellular activity of MP1102 and NZ2114 against Staphylococcus aureus in vitro and in vivo” (Scientific Reports, 2018).
Converted amounts (≈) assume the structure as drawn. Where two headings read alike, the source gives them in different places.

Tested on: S. aureus virulent CVCC546
Experiment: MIC in MHB at pH 7.3 and 5.0
Format: cell-based
Details: Staphylococcus aureus
Description: The cleavable cathepsin sites in the peptides were predicted by the SitePrediction website (http://www.dmbr.ugent.be/prx/bioit2-public/SitePrediction/)[55].

CN[C@H](CC(C)C)C(=O)N[C@H]1C(=O)N[C@@H](CC(N)=O)C(=O)N[C@H]2C(=O)N[C@H]3C(=O)N[C@H](C(=O)N[C@H](C(=O)O)c4cc(O)cc(O)c4-c4cc3ccc4O)[C@H](O)c3ccc(c(Cl)c3)Oc3cc2cc(c3O[C@@H]2O[C@H](CO)[C@@H](O)[C@H](O)[C@H]2O[C@H]2C[C@](C)(N)[C@H](O)[C@H](C)O2)Oc2ccc(cc2Cl)[C@H]1O [Vancomycin]
MIC (pH 5, read-out: MICs): 1 µg/mL (≈ 0.69 µM)
MIC (pH 7.3, read-out: MICs): 1 µg/mL (≈ 0.69 µM)
